Results on 36 targets are retold here after the supplement of paper PMC12067093, “Discovery and optimisation of a covalent ligand for TRIM25 and its application to targeted protein ubiquitination” (Chemical Science, 2025).

The other results are listed elsewhere or left out.
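Note: competitive chemoproteomic profiling in live THP-1 cells with an iodoacetamide desthiobiotin (IA-DTB) probe, comparing probe-labelled peptide intensities in compound-treated cells against DMSO-treated controls.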

Compound in the first test: CC1Cc2ccccc2N1C(=O)C1CCCN(C1)C(=O)CCl (mixture of isomers) [TRIM25 ligand 11 (diastereomer mixture)]
The test can be described thus: probe-labelled cysteine peptide fold change vs DMSO (competition) (log2 fold change); higher = less target engagement (more negative = stronger competition). The conditions noted are these: 10 µM; THP-1; incubation time: 4 h.
With “MKI67_P46013_27_SGVDGPHFPLSLSTCLFGR (UniProt P46013)”, the “probe-labelled cysteine peptide fold change” value is -0.0683.
Same read-out and setting: the value for “MMP14_P50281_127_WQHNEITFCIQNYTPK (UniProt P50281)” was -0.0624; that for “MRM3_Q9HC36_235_SAAGAGCSK (UniProt Q9HC36)” was -0.0242.
“MGRN1_O60291_297_HLCLCTSCADTLR (UniProt O60291)”: the “probe-labelled cysteine peptide fold change” value is -0.11.
Same read-out and setting: in the case of “MOCS3_O95396_179_YDVVADCSDNVPTR (UniProt O95396)” it was 0.229; in that of “MMS19_Q96T76_760_CFAGLLNK (UniProt Q96T76)”, -0.0555; in that of “MIS18BP1_Q6P0N0_870_HPLECLPGLIQDK (UniProt Q6P0N0)”, 0.0533.
For “MGRN1_O60291_528_AASIENVLQDSSPEHCGR (UniProt O60291)”, the “probe-labelled cysteine peptide fold change” value was -0.0357.
Same read-out and setting: in the case of “MLKL_Q8NB16_437_QQEPLGEDCPSELR (UniProt Q8NB16)” it was 0.0359.
The same measure, in the same setting: in the case of “MKI67_P46013_1285_ADVEGELLACR (UniProt P46013)” it was 0.163; in that of “MICAL3_Q7RTP6_97_CLIIGAGPCGLR (UniProt Q7RTP6)”, -0.0826.
For “MRPL21_Q7Z2W9_124_VTSEDLILIGNELDLACGER (UniProt Q7Z2W9)”, the “probe-labelled cysteine peptide fold change” value stood at 0.0288.
“MLH1_P40692_233_ELIEIGCEDK (UniProt P40692)”: the “probe-labelled cysteine peptide fold change” value came to 0.0724.
The same measure, in the same setting: the value for “MORC3_Q14149_787_QCSALQHVK (UniProt Q14149)” was -0.05; that for “MRNIP_Q6NTE8_300_ATHPVTSGSERPCGK (UniProt Q6NTE8)” was -0.0708.
With “MPHOSPH10_O00566_27_ATGRPECFLTIQEGLASK (UniProt O00566)”, the “probe-labelled cysteine peptide fold change” value was found to be 0.0116.
Turning to “MPP2_Q14168_543_GYGHYFDLCLVNSNLER (UniProt Q14168)”, the “probe-labelled cysteine peptide fold change” value was found to be 0.0309.
Take “MOV10_Q9HCE1_564_AHILACAPSNSGADLLCQR (UniProt Q9HCE1)”: the “probe-labelled cysteine peptide fold change” value was 0.00542.
Still for that read-out and setting: the value for “MLEC_Q14165_206_VCALYIMAGTVDDVPK (UniProt Q14165)” was -0.014; that for “MPI_P34949_309_FIDVPTLCEMLSYTPSSSK (UniProt P34949)” was -0.12.

The test is the same for the next values; noted with them: 50 µM; THP-1; incubation time: 4 h.
On to “MIEN1_Q9BRT3_33_IVVEYCEPCGFEATYLELASAVK (UniProt Q9BRT3)”, for which the “probe-labelled cysteine peptide fold change” value was -0.00377.
In the case of “MIF_P14174_60_ASVPDGFLSELTQQLAQATGKPPQYIAVHVVPDQLMAFGGSSEPCALCSLHSIGK (UniProt P14174)”, the “probe-labelled cysteine peptide fold change” value is -0.14.
As for “MRC2_Q9UBG0_1107_SCTEETHGFICQK (UniProt Q9UBG0)”, the “probe-labelled cysteine peptide fold change” value was -0.115.
For “MILR1_Q7Z6M3_110_AQVTSCSK (UniProt Q7Z6M3)”, the “probe-labelled cysteine peptide fold change” value is -0.0857.
On the same count and under the same terms, the value for “MKI67_P46013_2206_ELFQTPICTDKPTTHEK (UniProt P46013)” was -0.355; that for “MOB4_Q9Y3A3_51_ADCSNIDK (UniProt Q9Y3A3)” was 0.00201; that for “MPP1_Q00013_242_VASMAQSAPSEAPSCSPFGKK (UniProt Q00013)” was -0.385.
On the same count and under the same terms, the value for “MRPL37_Q9BZE1_203_ICVQNSTFSATWNR (UniProt Q9BZE1)” was 0.06; that for “MRPL37_Q9BZE1_104_DQACYIFHHR (UniProt Q9BZE1)” was 0.119.
Regarding “MRPL44_Q9H9J2_96_TAFVNSCYIK (UniProt Q9H9J2)”, the “probe-labelled cysteine peptide fold change” value is 0.0233.
On to “MIB2_Q96AX9_969_ITCPICIDSHIR (UniProt Q96AX9)”, for which the “probe-labelled cysteine peptide fold change” value came out at 0.16.
Take “MMS19_Q96T76_819_YHPLSSCLTAR (UniProt Q96T76)”: the “probe-labelled cysteine peptide fold change” value is 0.19.
“MILR1_Q7Z6M3_297_EESVPEVGSRPCVSTAQDEAK (UniProt Q7Z6M3)”: the “probe-labelled cysteine peptide fold change” value was -0.191.
Turning to “MRPL28_Q13084_154_EDLCSK (UniProt Q13084)”, the “probe-labelled cysteine peptide fold change” value came out at 0.116.
Still for that read-out and setting: in the case of “MON2_Q7Z3U7_592_AELTMAALCGR (UniProt Q7Z3U7)” it was 0.0976; in that of “MON2_Q7Z3U7_1033_LGELCVDPR (UniProt Q7Z3U7)”, 0.00112.
As to “MKI67_P46013_27_SGVDGPHFPLSLSTCLFGR (UniProt P46013)”, the “probe-labelled cysteine peptide fold change” value is -0.123.
In the case of “MMP14_P50281_127_WQHNEITFCIQNYTPK (UniProt P50281)”, the “probe-labelled cysteine peptide fold change” value was 0.12.
As for “MRM3_Q9HC36_235_SAAGAGCSK (UniProt Q9HC36)”, the “probe-labelled cysteine peptide fold change” value is -0.0628.
Take “MGRN1_O60291_297_HLCLCTSCADTLR (UniProt O60291)”: the “probe-labelled cysteine peptide fold change” value is -0.0448.
Regarding “MOCS3_O95396_179_YDVVADCSDNVPTR (UniProt O95396)”, the “probe-labelled cysteine peptide fold change” value stood at 0.144.
On to “MMS19_Q96T76_760_CFAGLLNK (UniProt Q96T76)”, for which the “probe-labelled cysteine peptide fold change” value is 0.03.
In the case of “MIS18BP1_Q6P0N0_870_HPLECLPGLIQDK (UniProt Q6P0N0)”, the “probe-labelled cysteine peptide fold change” value is 0.0794.
“MGRN1_O60291_528_AASIENVLQDSSPEHCGR (UniProt O60291)”: the “probe-labelled cysteine peptide fold change” value is -0.421.
For “MLKL_Q8NB16_437_QQEPLGEDCPSELR (UniProt Q8NB16)”, the “probe-labelled cysteine peptide fold change” value is -0.184.
Regarding “MKI67_P46013_1285_ADVEGELLACR (UniProt P46013)”, the “probe-labelled cysteine peptide fold change” value was -0.17.
“MICAL3_Q7RTP6_97_CLIIGAGPCGLR (UniProt Q7RTP6)”: the “probe-labelled cysteine peptide fold change” value is -0.0375.
Consider “MRPL21_Q7Z2W9_124_VTSEDLILIGNELDLACGER (UniProt Q7Z2W9)”, for which the “probe-labelled cysteine peptide fold change” value was 0.119.
For “MLH1_P40692_233_ELIEIGCEDK (UniProt P40692)”, the “probe-labelled cysteine peptide fold change” value turned out to be 0.035.
For the target “MORC3_Q14149_787_QCSALQHVK (UniProt Q14149)”, the “probe-labelled cysteine peptide fold change” value was -0.17.
Take “MRNIP_Q6NTE8_300_ATHPVTSGSERPCGK (UniProt Q6NTE8)”: the “probe-labelled cysteine peptide fold change” value was -0.356.
“MPHOSPH10_O00566_27_ATGRPECFLTIQEGLASK (UniProt O00566)”: the “probe-labelled cysteine peptide fold change” value was -0.0696.
In the case of “MPP2_Q14168_543_GYGHYFDLCLVNSNLER (UniProt Q14168)”, the “probe-labelled cysteine peptide fold change” value amounted to 0.0351.
Regarding “MOV10_Q9HCE1_564_AHILACAPSNSGADLLCQR (UniProt Q9HCE1)”, the “probe-labelled cysteine peptide fold change” value was -0.0618.
On to “MLEC_Q14165_206_VCALYIMAGTVDDVPK (UniProt Q14165)”, for which the “probe-labelled cysteine peptide fold change” value was 0.0498.
Same read-out and setting: in the case of “MPI_P34949_309_FIDVPTLCEMLSYTPSSSK (UniProt P34949)” it was 0.0295.
